Measurements as given in paper doi:10.1101/592881.
Results are given in words; binding and its absence hold for the method and conditions named. Binding seen in cells or lysates may run through a third protein. Here binding means that the protein was enriched with, or labelled near, the bait; the list need not be complete. No binding means not detected with the bait.

Biological target: T1, N-terminally biotinylated active region of PNP-A synthetic peptide (Arabidopsis thaliana) (UniProt Q9ZV52)
T1 sequence (peptide, biotin on the N-terminus): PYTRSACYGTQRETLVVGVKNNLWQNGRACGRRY
Experiment: affinity purification with mass spectrometry

Row | binding | Substance
1 | binds | PNP-A receptor protein (PNPAR), endogenous
2 | no binding | PNP-R1, endogenous (receptor)
